Assay results from patent publication US5352680A, “Delta opioid receptor antagonists to block opioid agonist tolerance and dependence” (priority 1992, dated 1994).

Tested on: development of physical dependence in mice treated acutely with morphine
Type: in vivo, mice (male Swiss-Webster)
Details: Morphine sulfate 100 mg/kg, s.c. 4 hr before the naloxone; * significantly different from MS + NTI (single injection)

CN1CC[C@]23c4c5ccc(O)c4O[C@H]2[C@@H](O)C=C[C@H]3[C@H]1C5.O=S(=O)(O)O [Morphine sulfate, reference compound]
ED50 of Naloxone: 2.0 ± 0.3 μmol/kg ± S.E.
